Results deposited as PubChem BioAssay AID1159578 (Peter MacCallum Cancer Centre, 2015).
Test: 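Genome-wide hunt for genes controlling movement of lymphatic endothelial cells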 (primary screen). Cells: human lymphatic endothelial cells. Reagent: siRNA pool against human genes, 40 nM. Time to read-out: 48 h after transfection. Detection: 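Cells stained with dye and imaged after a scratch; covered wound area and nuclei counted, duplicates averaged, migration set against mock wells and turned into a robust z-score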. Scale: migration robust z-score: higher = faster migration into the scratch; nuclei per well: higher = more cells in the well. Hit rule: 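Migration changed when robust z exceeds 2 or falls below -2 and mean nuclei number is at least 3300; otherwise not called changed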. Calls: active = migration changed; inactive = no migration change, or too few cells.
In all, the deposit lists about 18,000 reagents; this is a random part of them. In the full data, about 1,030 (5.7%) were called active. 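Inactive calls also include pools with fewer than 3300 nuclei, whose migration was not assessed.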 Raw values are not corrected between plates. Not all columns of the deposit are shown.

For OR5K1 (GeneID 26339) the deposit lists migration robust z-score -0.18; nuclei per well, duplicate mean 5816; inactive. After knock-down of ABHD14A (GeneID 25864) the results were migration robust z-score 0.31; nuclei per well, duplicate mean 7166; inactive. PPBP (GeneID 5473) scored migration robust z-score 0.33; nuclei per well, duplicate mean 6143; inactive. After knock-down of OR2M7 (GeneID 391196) the results were migration robust z-score -0.54; nuclei per well, duplicate mean 4876; inactive. After knock-down of P4HA1 (GeneID 5033) the results were migration robust z-score -0.65; nuclei per well, duplicate mean 5682; inactive. Against FRRS1L (GeneID 23732), the entry reads migration robust z-score 0.43; nuclei per well, duplicate mean 5082; inactive.

METTL9 (GeneID 51108) scored migration robust z-score 1.54; nuclei per well, duplicate mean 4327; inactive. For NFIX (GeneID 4784) the deposit lists migration robust z-score 0.18; nuclei per well, duplicate mean 6512; inactive. PRDX1 (GeneID 5052) showed migration robust z-score 0.22; nuclei per well, duplicate mean 6092; inactive. For LRRC18 (GeneID 474354), the entry reads migration robust z-score 2.52; nuclei per well, duplicate mean 6622; active. FAM124A (GeneID 220108) gave migration robust z-score -0.56; nuclei per well, duplicate mean 5300; inactive. CAMLG (GeneID 819) gave migration robust z-score 2.19; nuclei per well, duplicate mean 6212; active.
